Consider three molecules from patent publication US20230002492A1.

The chains behind the UniProt entries cited, without tags or fusion partners. Where a name states a change or a piece, a line headed by the entry shows the natural chain unless it says otherwise. Residues count along the entry.
UniProt Q9NZQ7: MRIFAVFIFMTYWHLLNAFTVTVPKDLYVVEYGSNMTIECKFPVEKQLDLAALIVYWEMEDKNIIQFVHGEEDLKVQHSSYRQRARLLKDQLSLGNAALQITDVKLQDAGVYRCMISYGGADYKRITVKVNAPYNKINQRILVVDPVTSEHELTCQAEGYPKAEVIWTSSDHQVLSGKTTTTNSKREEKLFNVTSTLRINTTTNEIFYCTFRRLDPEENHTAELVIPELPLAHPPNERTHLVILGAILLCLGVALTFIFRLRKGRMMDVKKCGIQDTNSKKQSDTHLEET
PD-L1 on the surface of CHO-PD-L1 cells: residues 19-290 of Q9NZQ7
recombinant human PD-L1-His (Novoprotein, Cat. 315): residues 19-239 of Q9NZQ7

Test [1] has as its target recombinant human PD-L1-His (Novoprotein, Cat. 315) (human) (UniProt Q9NZQ7). Nature of the test: SPR, Biacore T200. (In general: Surface plasmon resonance follows binding to a sensor surface in real time, without labels.)
The target in test [2] is PD-L1 on the surface of CHO-PD-L1 cells (UniProt Q9NZQ7). The experiment in a line: flow cytometry on CHO-PD-L1 cells, anti-human IgG PE. In general terms: In flow cytometry, cells or beads pass a laser one at a time.

No constants are given. Whether binding was seen depends on the method and setting. Some entries that bind do so weakly or less than the wild type.

B1: PDL1-50 (antibody, V domains shown)
VH: EVQLQESGGDLVKPGGSLKLSCAASGFTFNTYGMSWVRQTPDKRLEWVATLSSGGSYTYYSESVKGRFTISRDNAKNTLYLQMTSLKSEDTAIYYCARPTADWHLDVWGTGTTVTVSS
VL: DIQMTQSPSSLSASLGGKVTITCKASQDINKYIAWYQHKPGKGPRLLIHYTSTLQPGIPSRFSGSGSGRDYSFSISNLEPEDIATYYCLQHDNLLFTFGSGTKLEIK
B1: in test [1], the binding entry is reported as “binds”.

B2: PDL1-370 (antibody, V domains shown)
VH: EVQLQESGPGLAKPSQTLSLTCSVTGYSITSDYWNWIRKFPGNKLEYMGYISYTGSTYYNPSLKSRISIARDTSRNQYYLQLNSVTTEDSATYYCARAGGWLLPFAVWGTGTTVTVSS
VL: DIVITQSPSSLAVSVGEKVTMSCKSSQSLLYSSNQQNSLAWYQQKPGQSPILLIYWASTRESGVPDRFTGGGSGTDFTLTISSVRAEDLAVYYCQQYYNYPWTFGGGTKLEIK
For B2, the binding entry in test [2] is recorded as “binds”.

B3: PDL1-156 (antibody, V domains shown)
VH: EVQLQESGPELVKPGASVKISCKASGYTFTDYYMNWVRQSHGKSLEWIGDINPNNGDTSYNQKFKGKATLTVDKSSSTAYMDLRSLTSEDSAVYYCASSVMDYWGQGTTVTVSS
VL: DIVLTQSPALMSASPGEKVTMTCSASSSVNYVYWYQQKPRSSPKPWIYLTFNLASGVPARFSGSGSGTSYSLTISSMEAEDAATYYCQQWSSNPLTFGAGTKLEIK
In the case of B3, the binding result in test [2] was “binds”.
